Data published in BindingDB's records for PubMed 1586393 (U. 109, 1992).

By UniProt entry, the sequences of proteins in these tests, tags left out. Chains listed by the source or under a name are the forms on record and can include a tag or linker.
UniProt P35462, as listed by the source: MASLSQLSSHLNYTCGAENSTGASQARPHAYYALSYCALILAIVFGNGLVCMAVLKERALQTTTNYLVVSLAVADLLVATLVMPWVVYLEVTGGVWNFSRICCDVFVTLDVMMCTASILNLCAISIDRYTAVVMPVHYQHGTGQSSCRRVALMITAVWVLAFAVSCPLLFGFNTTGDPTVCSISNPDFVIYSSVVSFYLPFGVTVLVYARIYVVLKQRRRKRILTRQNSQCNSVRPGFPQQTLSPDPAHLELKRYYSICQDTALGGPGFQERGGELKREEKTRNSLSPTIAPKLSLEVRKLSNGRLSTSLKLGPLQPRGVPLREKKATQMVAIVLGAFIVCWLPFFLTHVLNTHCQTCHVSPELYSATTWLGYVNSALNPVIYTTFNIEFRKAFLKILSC

Molecular target: D(3) dopamine receptor (Homo sapiens, UniProt P35462)

- Ki: 1.8 nM
Structure (SMILES): CN1CCN(CCCN2c3ccccc3Sc3ccc(Cl)cc32)CC1 [2-chloro-10-[3-(4-methylpiperazin-1-yl)propyl]phenothiazine;ethane-1,2-disulfonic acid]
